# At least one compound was matched to its structure with a doubt left.
# Experiment: Hydrolysis rate constant with MgCl2 or CaCl2 as stabilizer
# Type: physicochemical
# Conditions: aqueous solution not containing MgCl2 or CaCl2
# Source text: The use of calcium chloride as a stabilizer against hydrolytic decomposition in both buffer solutions and water was also investigated; the hydrolysis rate constant was compared with the constant for MgCl2. […] If molar ratios were less than 2:1, the hydrolysis rate was lower for solutions containing MgCl2.
smiles,measurement,value
CC(O)(P(=O)(O)O)P(=O)(O)OP(=O)(O)OC[C@H]1O[C@@H](n2ccc(N)nc2=O)[C@@H](O)[C@@H]1O (stereo partly shown) [MBC-11],hydrolysis rate constant (K),"0, 0044"
